Data from patent publication US20070179135A1 (priority 2006, published 2007).
For at least one compound, name, drawing or mass did not settle the structure.

Experiments:
Format in all cases: cell-based
Settings in all cases: five days
CAKI-1 (renal) = experiment: Antineoplastic assessment, SRB assay, CAKI-1
Description: (§1) Cell Lines. Cell lines indicated in table 2 were propagated under sterile conditions in RPMI 1640 or DMEM with 10% fetal calf serum, 2 mM L-glutamine, and sodium bicarbonate (“complete medium”) and incubated at 37° C. 5% CO2 and 95% humidity. Each cell line was subcultured once or twice weekly, and they were periodically screened for mycoplama contamination (positive cultures were cured over three passages with antibiotic). Only cultures free of mycoplasma were used for antineoplastic assessment. Antineoplastic Assessment. Cells from each cell line were harvested, pelleted to remove the media, and then suspended in fresh complete medium. The cell count was determined and viability was measured with propidium iodide staining. The cells were adjusted with complete medium to a density of 5×10^3 cells/ml. […]
(§2) Following acclamation, the compounds indicated in table 2 were diluted in complete medium. […] Each culture plate contains a cell control (8 wells, mock treated with complete medium), a medium control (7 wells with medium used to subtract out signal generated by media conditions), a solvent control (8 wells), and an air blank (1 well) for calibrating the plate reader. […]
(§3) Five days after treatment, the cells were analyzed for antineoplastic effects using the SRB assay to calculate IC50 for each treatment.

LOX IMVI (melanoma) = experiment: Antineoplastic assessment, SRB assay, LOX IMVI
DLO-1 (colon) = experiment: Antineoplastic assessment, SRB assay, DLO-1
Description: as §1, §2, §3

ZR-75-1 (mammary) = experiment: Antineoplastic assessment, SRB assay, ZR-75-1
Description: as §1, §2, §3

NCI-H23 (lung) = experiment: Antineoplastic assessment, SRB assay, NCI-H23
Description: as §1, §2, §3

SNB-7 (CNS) = experiment: Antineoplastic assessment, SRB assay, SNB-7
Description: as §1, §2, §3

PC-3 (prostate) = experiment: Antineoplastic assessment, SRB assay, PC-3
Description: as §1, §2, §3

## CCCCCc1cc(O)cc(O)c1 [Olivitol]
CAKI-1 (renal)
  IC50 Values in ug/ml: 4.0 × 10^ ug/ml
LOX IMVI (melanoma)
  IC50 Molar Values: (2.4 × 10^) Molar
  IC50 Values in ug/ml: 4.4 × 10^ ug/ml
DLO-1 (colon)
  IC50 Values in ug/ml: 4.2 × 10^ ug/ml
ZR-75-1 (mammary)
  IC50 Values in ug/ml: 3.6 × 10^ ug/ml
NCI-H23 (lung)
  IC50 Molar Values: (1.8 × 10^) Molar
  IC50 Values in ug/ml: 3.3 × 10^ ug/ml
SNB-7 (CNS)
  IC50 Values in ug/ml: 4.0 × 10^ ug/ml
PC-3 (prostate)
  IC50 Values in ug/ml: 3.7 × 10^ ug/ml
